We go through 38 compounds from PubChem BioAssay AID2685 (National Center for Advancing Translational Sciences (NCATS), 2010).

This is one part of the list. The main result of the screen is listed elsewhere. These columns were measured beside it and carry no call. Most of these compounds were active or inconclusive in the main read-out, so they are no random draw. Potencies come from curve fits of mixed quality, noted in brackets.

A short description of this experiment: qHTS Assay for Lipid Storage Modulators in Drosophila S3 Cells.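 For cell number change: cells counted by Cell Tracker Red CMTPX staining in the red channel.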 The settings on record: BODIPY lipid droplet fluorescence, 18-24 h; for cell number change: measured here: cell count max response, cells fed with added oleic acid. The gist of the method:
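Drosophila S3 cells loaded with oleic acid (400 uM, as added) and compounds at several concentrations; lipid droplets imaged by 488-nm laser-scanning cytometry, 500–530 nm intensity and object ratio to cell channel. Percent activity normalized to 20 uM Triacsin C.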

The mark [1] stands for this setting: measured here: cell number channel AC50, cells fed with added oleic acid.
Where [2] appears, read: measured here: lipid fluorescence (Fed channel) AC50, cells fed with added oleic acid.

As to `CCOC(=O)[C@@H]1[C@H]2COc3ccc(Br)cc3[C@H]2N2C(=O)N(c3cccc(Cl)c3)C(=O)[C@]12C`, the cell number change was 54.2%. The half-maximal activity concentration (AC50) under setting [1] is 20.6 µM [rising, partial curve].
For the compound `CCN1CCN(c2ccc(S(=O)(=O)N3CCOCC3)cc2NC(=O)/C=C/c2ccc(OC)c(OC)c2)CC1`, the cell number change worked out at 70.6%. Further, the half-maximal activity concentration (AC50) under setting [1] was 20.6 µM [rising, single point].
Turning to `CC1CCC(NC(=O)Cn2cc3c(n2)CCCC3)CC1` (configuration not stated), the cell number change amounted to 18.8%. Under setting [2], the half-maximal activity concentration (AC50) was 0.184 µM [falling, full curve].
For the compound `Cc1ccc(Cl)c(NC(=O)CN2CCN(C=O)CC2)c1`, under setting [2], the AC50 is 0.58 µM [rising, single point].
Turning to `COc1ccc([N+](=O)[O-])cc1NC(=O)COC(=O)c1ccccn1`, the cell number change is -46.5%. Also, the AC50 under setting [1] is 0.461 µM [falling, single point].
For the compound `CSc1ccccc1C(=O)C1CCCN(C(=O)c2cc(C(C)C)no2)C1` (configuration not stated), the half-maximal activity concentration (AC50) under setting [2] was 0.0259 µM [rising, full curve, poor fit].
For `CCOc1ccc(/C=C/c2c([N+](=O)[O-])c(=O)n(C)c(=O)n2C)cc1`, the cell number change was -31.7%.
In the case of `CC1CC(C)CN(c2ncc3c(n2)CC(c2ccccc2Cl)CC3=O)C1` (configuration not stated), the AC50 reads like this: under setting [1], 4.61 µM [rising, single point]; under setting [2], 6.51 µM [rising, single point].
As for `Cc1cc(C)cc(NC(=O)Cc2ccc(S(=O)(=O)N3CCCC3)s2)c1`, the cell number change was -42%. In addition, the AC50 under setting [1] is 23.1 µM [falling, partial curve].
As for `COc1ccc(Cl)cc1NC(=O)c1nnn(CC(=O)Nc2ccc3c(c2)OCO3)c1N`, the cell number change was 34%.
For the compound `CCC(C)c1ccc(NC(=S)NCc2cccs2)cc1` (configuration not stated), the cell number change was -35.8%. In addition, the concentration at half-maximal activity (AC50) under setting [1] is 0.00461 µM [falling, full curve].
Consider `Cc1cc(C)c(S(=O)(=O)N2CCOC2CNC(=O)C(=O)NCc2ccncc2)c(C)c1` (configuration not stated), for which the cell number change is -16.4%. Also, the AC50 under setting [2] was 14.6 µM [falling, partial curve, poor fit].
For the compound `CCN(Cc1ccccc1)S(=O)(=O)c1cc2[nH]c(=O)c(=O)[nH]c2cc1C`, the cell number change was -6.92%. Further, the AC50 under setting [2] is 0.259 µM [falling, partial curve, poor fit].
Regarding `O=C(NN1CCOCC1)c1ccccc1`, the cell number change is -11.9%. Besides, under setting [2], the half-maximal activity concentration (AC50) was 6.51 µM [rising, single point].
As for `CN(C)CCN(C(=O)/C=C/c1cccs1)c1nc2c(F)cc(F)cc2s1`, the cell number change was -30.6%. The concentration at half-maximal activity (AC50) under setting [1] was 16.4 µM [falling, single point]. The AC50 under setting [2] is 20.6 µM [falling, partial curve].
As for `COc1cc2c(cc1OC)C(c1ccccc1)N(C(=O)CSCC(=O)O)CC2` (configuration not stated), under setting [2], the concentration at half-maximal activity (AC50) is 0.58 µM [falling, single point].
For the compound `CC(C)(C)c1ccc(C(=O)Nc2ccc(CN3CCS(=O)(=O)CC3)cc2)cc1`, the cell number change is -31.8%. For the same compound, the AC50 under setting [2] is 29.1 µM [falling, single point].
As for `CC1CC(C(F)(F)C(F)(F)F)n2nc(C(=O)O)cc2N1` (configuration not stated), the cell number change amounted to 8.06%. The concentration at half-maximal activity (AC50) under setting [1] is 0.0146 µM [rising, full curve].
In the case of `Cc1snc(S(=O)(=O)Cc2ccccc2Cl)c1C#N`, the cell number change is -23.3%. For the same compound, the half-maximal activity concentration (AC50) under setting [2] is 18.4 µM [falling, partial curve].
Take `CCOc1ccc(NC(=O)CCNS(=O)(=O)c2ccc(Br)s2)cc1`: the cell number change was 4.14%. The AC50 under setting [1] is 1.84 µM [rising, single point]. The AC50 under setting [2] is 3.26 µM [rising, partial curve].
In the case of `COCC(=O)N(Cc1cc2ccc(C)cc2[nH]c1=O)c1ccc(C)cc1C`, the cell number change came out at 12.8%.
As to `CC(C)CN(C(=O)c1ccc(-n2cncn2)c([N+](=O)[O-])c1)C1CCS(=O)(=O)C1` (configuration not stated), the cell number change is -25%. The half-maximal activity concentration (AC50) under setting [1] was 2.31 µM [falling, full curve, poor fit]. For the same compound, the AC50 under setting [2] is 29.1 µM [rising, single point].
For the compound `O=c1[nH]c2ccccc2c2ccccc12`, the cell number change was found to be 83.3%. In addition, under setting [1], the AC50 is 18.4 µM [rising, single point].
Regarding `CCNC(=O)/C(C#N)=C/c1c(N2CCN(C)CC2)nc2c(C)cccn2c1=O`, the cell number change was -9.68%. Moreover, the AC50 under setting [2] was 1.84 µM [rising, partial curve].
Turning to `COc1ccc(C)cc1NC(=O)Nc1ccncc1`, the cell number change was -8.38%. In addition, under setting [2], the AC50 is 6.51 µM [falling, single point].
As to `Cc1ccc2[nH]c(=O)c(CN(CC3CCCO3)S(=O)(=O)c3cccc4nsnc34)cc2c1` (configuration not stated), the cell number change was -8.55%. Further, under setting [2], the half-maximal activity concentration (AC50) was 8.2 µM [rising, partial curve].
Consider `CCS(=O)(=O)c1ccc(C(=O)Nc2ccccc2)c(Cl)c1Cl`, for which the cell number change was 0.377%. Moreover, the concentration at half-maximal activity (AC50) under setting [2] is 29.1 µM [rising, single point].
In the case of `O=C1CN(C(=O)c2cc(Br)c(Br)s2)c2ccccc2N1`, the cell number change was 41.4%. For the same compound, the AC50 under setting [1] was 11.6 µM [rising, partial curve].
In the case of `O=C(O)CCn1c(Cc2ccccc2)nc2ccccc21`, the cell number change is -13.8%.
For the compound `O=C(Cn1cnc2c(oc3ccccc32)c1=O)NCc1ccco1`, the cell number change amounted to 23%. Also, the half-maximal activity concentration (AC50) under setting [2] was 23.1 µM [falling, partial curve].
`O=C(NNC(=O)c1ccccc1O)c1ccc(S(=O)(=O)Nc2ccccc2)cc1`: the cell number change is -4.49%.
For the compound `CCOc1ccc(S(=O)(=O)N2CCCC(C(=O)N3CCCC3)C2)cc1` (configuration not stated), the cell number change was determined as 10.5%. The AC50 under setting [2] is 6.51 µM [falling, single point].
On to `Cc1ccc(CNC(=O)C2CCCN2C(=O)Nc2cccc(Cl)c2)cc1` (configuration not stated), for which the cell number change is -8.14%.
Consider `CSc1ccc(CN(C)C(=O)c2ccc(S(=O)(=O)Nc3ccccc3)cc2)cc1`, for which the cell number change is -2.51%. For the same compound, the AC50 under setting [2] was 23.1 µM [falling, single point].
As to `O=C(NC1CCCc2ccccc21)C1CCN(S(=O)(=O)c2cccc3nonc23)CC1` (configuration not stated), the cell number change was -0.116%. In addition, the AC50 under setting [2] was 29.1 µM [rising, single point].
For `O=[N+]([O-])c1ccccc1S(=O)(=O)N1CCN(Cc2ccc3c(c2)OCO3)CC1`, the cell number change was -6.1%. For the same compound, the AC50 under setting [2] was 0.092 µM [rising, full curve, poor fit].
As to `COc1ccc(NC(=O)COC(=O)c2ccc(S(=O)(=O)N3CCCC3)cc2)cc1OC`, the cell number change was -37.1%. Moreover, under setting [1], the half-maximal activity concentration (AC50) is 1.64 µM [falling, full curve, poor fit]. Under setting [2], the AC50 is 9.2 µM [falling, partial curve].
As for `COc1cc([C@H](Cc2ccccc2)NC(C)=O)oc(=O)c1`, the cell number change is -34.5%. Besides, the AC50 under setting [1] is 14.6 µM [falling, partial curve, poor fit]. For the same compound, under setting [2], the AC50 is 29.1 µM [falling, single point].
